Reference: PubChem BioAssay AID1487 (National Center for Advancing Translational Sciences (NCATS), 2009)
This is one part of the list. Shown are side measurements of this screen, not its main read-out; they come without a call. Compounds called inactive in the main read-out are mostly missing here. Words in brackets tell the shape of the fitted curve; partial curves, single points and poor fits give uncertain potencies.

Assay: qHTS Assay for Modulators of Lamin A Splicing
Conditions: HeLa LMNA splicing GFP/RFP minigene ratio, 48 h
Summary of the method: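 Read-out is the ratio of GFP to DsRed2 object intensity, acquired by 488 nm laser-scanning cytometry on HeLa lamin A-EGFP minigene reporter cells. Compound incubation 48 hrs at 37 °C in Opti-MEM with 2% FBS; DMSO 0.5% final.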

[1] = measured here: GFP splicing reporter channel
[2] = measured here: RFP viability control channel

For CCN1CCN(C(=O)CCN2C(=O)c3ccccc3C2=O)CC1, the AC50 [1] was 0.501 µM [falling, single point].
With CSc1scc2c1-c1nc(SCC(=O)C(C)(C)C)ncc1CC2 the AC50 [1] was 2.24 µM [falling, single point] and the AC50 [2] was 3.98 µM [falling, full curve].
For Brc1ccc2c(c1)OCCOCCOc1cc(Br)ccc1OCCOCCOCCO2, the AC50 [2] was 12.6 µM [rising, partial curve].
For CCOc1cc(N2CCOCC2)c(OCC)cc1NC(=O)CN1C(=O)C2CC=CCC2C1=O (configuration not stated), the AC50 [2] was 0.0794 µM [falling, full curve].
For Cc1nn(C)c(C(=O)N/N=C/c2ccc(Br)cc2)c1Cl, the AC50 [1] was 0.178 µM [rising, full curve, poor fit].
In the case of Cc1ccc2nc(/C(C#N)=C/c3ccc(-c4cccc([N+](=O)[O-])c4)o3)[nH]c2c1, the AC50 [2] is reported as 0.0631 µM [rising, full curve, poor fit].
For O=C1c2cccc3cccc(c23)C(=O)N1CC1CCN(S(=O)(=O)c2ccc(F)cc2)CC1, the AC50 [2] was 35.5 µM [rising, single point].
With Cc1cccc(CCNS(=O)(=O)c2ccc(S(=O)(=O)NC3CCCC3)cc2)c1 the AC50 [2] was 25.1 µM [rising, single point].
For CCC1CN(C(=O)N2CCC(C(=O)Nc3ccccc3F)CC2)c2ccccc2O1 (configuration not stated), the AC50 [1] was 11.2 µM [falling, partial curve] and the AC50 [2] was 10 µM [falling, partial curve].
In the case of COc1ccc(NC(=O)CN2C(=O)COc3ccc(S(=O)(=O)N4CCCCCC4)cc32)cc1, the AC50 [1] is reported as 0.02 µM [rising, full curve, poor fit].
For Cc1cc(C2=NNC(=NC3CC3)SC2)c(C)n1-c1ccccc1, the AC50 [2] was 35.5 µM [rising, single point].
With N#Cc1ccc(/C=N/NC(=O)c2cc(-c3cccs3)nc3ccccc23)cc1 the AC50 [2] was 6.31 µM [rising, full curve, poor fit].
With Cc1ccc(S(=O)(=O)N(C)C)cc1NC(=S)NC(=O)C12CC3CC(CC(C3)C1)C2 the AC50 [1] was 7.08 µM [rising, partial curve] and the AC50 [2] was 5.01 µM [rising, full curve].
In the case of CCCCNC(=O)CN1C(=O)C(CC)Oc2ccc(Cl)cc21 (configuration not stated), the AC50 [1] is reported as 0.794 µM [falling, single point] and the AC50 [2] is reported as 0.794 µM [falling, single point].
For CCOC(=O)c1ccc(NC(=O)CSc2nc3sc(C(=O)O)c(C)c3c(=O)[nH]2)cc1, the AC50 [1] was 0.0794 µM [falling, full curve, poor fit].
In the case of CCN(CC)S(=O)(=O)c1ccc(N2CCN(c3cccc(OC)c3)CC2)c([N+](=O)[O-])c1, the AC50 [1] is reported as 10 µM [rising, partial curve] and the AC50 [2] is reported as 17.8 µM [rising, partial curve].
With COC(=O)c1ccc(C(=O)OC)c(NC(=O)CN(C)Cc2ccc(Cl)c(Cl)c2)c1 the AC50 [2] was 0.0178 µM [rising, full curve, poor fit].
In the case of O=C(Nc1cccc(Cl)c1Cl)c1cc(S(=O)(=O)NCc2ccc3c(c2)OCO3)ccc1F, the AC50 [1] is reported as 0.158 µM [rising, partial curve].
In the case of Cc1cccc2cc(C#N)c(NCCNS(=O)(=O)c3ccc4c(c3)OCCO4)nc12, the AC50 [2] is reported as 12.6 µM [rising, single point].
In the case of O=C(Nc1cc(Cl)ccc1Oc1ccccc1)c1ccccc1F, the AC50 [2] is reported as 14.1 µM [rising, single point].
In the case of c1ccc(CC2CCN(c3nc4ccccc4n4cnnc34)CC2)cc1, the AC50 [2] is reported as 35.5 µM [rising, single point].
For CC(=O)O[C@@H](C)C[N+](C)(C)C, the AC50 [1] was 0.000891 µM [falling, full curve, poor fit] and the AC50 [2] was 0.316 µM [rising, full curve, poor fit].
With Cc1ccc(-c2csc3ncnc(-n4cnc5ccccc54)c23)cc1 the AC50 [2] was 20 µM [rising, single point].
In the case of Cc1ccc(CNc2ccc3c(c2)OCO3)cc1, the AC50 [1] is reported as 14.1 µM [rising, partial curve, poor fit] and the AC50 [2] is reported as 0.891 µM [rising, partial curve, poor fit].
In the case of COC(=O)n1c(=O)oc2cc(S(=O)(=O)N3CCCCC3)ccc21, the AC50 [2] is reported as 31.6 µM [rising, single point].
With O=S(=O)(NCC(c1ccco1)N1CCN(c2ccccc2F)CC1)c1ccc(F)cc1 (configuration not stated) the AC50 [2] was 35.5 µM [rising, single point].
In the case of COc1ccc(C(=O)CSc2ccc(-c3ccc(C)cc3)nn2)cc1, the AC50 [2] is reported as 35.5 µM [rising, single point].
With O=c1[nH]c(=O)n(-c2ccc(F)cc2)c2c1C(C(F)(F)F)(C(F)(F)F)N=C(c1ccc(F)cc1)N2 the AC50 [2] was 8.91 µM [rising, partial curve].
For c1ccc2cc(CSCc3nc4ccccc4[nH]3)ccc2c1, the AC50 [2] was 17.8 µM [rising, partial curve].
For Cc1nn2c(=O)cc(COC(=O)Cc3ccccc3)nc2s1, the AC50 [1] was 1.41 µM [rising, full curve, poor fit].
With O=C(O)CC1S/C(=N/N=C/c2ccc(-c3ccccc3[N+](=O)[O-])o2)NC1=O (configuration not stated) the AC50 [2] was 12.6 µM [falling, partial curve, poor fit].
With COC(=O)C1=C(C)Nc2ncnn2C1c1ccc(OC(=O)c2ccccc2)cc1 (configuration not stated) the AC50 [1] was 35.5 µM [falling, single point] and the AC50 [2] was 35.5 µM [falling, single point].
With COc1ccc(NS(=O)(=O)c2ccc(NS(C)(=O)=O)cc2)cc1 the AC50 [1] was 31.6 µM [rising, single point] and the AC50 [2] was 31.6 µM [rising, single point].
In the case of CCN(C(=O)COC(=O)/C=C/c1nc2ccccc2s1)C1CCS(=O)(=O)C1 (configuration not stated), the AC50 [2] is reported as 8.91 µM [rising, partial curve].
For O=c1[nH]c2ccccc2nc1-c1cccs1, the AC50 [1] was 0.501 µM [falling, full curve] and the AC50 [2] was 0.501 µM [falling, full curve].
For Cc1sc2nc(C(C)C)nc(SCC(=O)NCc3ccco3)c2c1C, the AC50 [1] was 15.8 µM [rising, single point] and the AC50 [2] was 14.1 µM [rising, single point].
